Some entries share one result that the patent states for a list of compounds. At least one structure is not confirmed: it was looked up by name or label, or the drawing left a doubt.
Test system: Jurkat cells
Assay: Combined detection of hypoxia and superoxide in live cells by flow cytometry
Format: cell-based, human
Conditions: compared to the untreated cells
Procedure: HeLa, U-2 OS, and Jurkat cell lines were cultured as described in Examples 7 and 9. Stock solutions of the probes and inhibitors were prepared as described in Examples 7 and 10.
The day before the experiment, HeLa and U-2 OS cells were seeded in 6-well tissue culture plates at a density of 5×10^5 cells/well. Jurkat cells were collected in logarithmic phase of growth and aliquoted at a density of 5×10^5 cells/sample. On the day of the experiment, the cells were preloaded with either hypoxia or ROS-detecting probes only or with the combination of hypoxia and ROS-detecting probes with compatible spectral characteristics. Samples stained with single hypoxia probes or with two ROS-detecting probes were made to validate data obtained with the combination of hypoxia and redox probes. […] Post-treatment, the adherent cells (HeLa and U-2 OS) were collected by trypsinization, re-suspended in 0.5 mL of fresh PBS and analyzed using flow cytometry. Jurkat cells were analyzed without washing. Flow cytometry experiments were performed using an FACS Calibur benchtop flow cytometer (BD Biosciences) equipped with a blue (488 nm) laser, and the fluorescence was recorded in the FITC (530/30 filter), PE (585/42 filter) and PerCP (670 LP filter) channels. […] To quantify data, quadrant gates were set using untreated samples.

SMILES | superoxide production: population of orange positive cells
CC(=O)N(O)CCCCCNC(=O)CCC(=O)N(O)CCCCCNC(=O)CCC(=O)N(O)CCCCCN [DFO, desferrioxamine] | ≥ 40%
COC(=O)CNC(=O)C(=O)OC [DMOG, dimethyloxalylglycine, N-[Methoxyoxoacetyl]glycine methyl ester] | ≥ 40%
